At least one read-out could not be matched to a standard name with certainty.
Target: high-affinity choline transporter
Assay: [3H]hemicholinium-3 binding to hippocampal membrane samples after pre-incubation with drug; Scatchard-plot
Design: species or system rats
Conditions: Scatchard-plot analysis; FIG. 3
Protocol: The action of the compound of the formula (I), particularly 4-acylamino-5,6,7,8-tetrahydrofuro[2,3-b]quinoline derivative, relative to the density of the high-affinity choline transporter on the nerve terminal was examined using [^3H]hemicholinium-3, which is a specific labeled ligand of a high-affinity choline transporter (SYNAPSE No. 1, pp. 293-303, 1987). The aforementioned AF64A-treated rats were used in this test, too. Hippocampal membrane samples (P2 fraction) were prepared according to a conventional method from the AF64A-treated animals and the sham operation animals. These membrane samples were incubated in Ringer's solution with Compound A at each concentration or a solvent (vehicle) at 37° C. for 30 min. After the completion of the incubation, the drug was removed from the reaction mixture by centrifugation at 4° C. and the membrane samples were washed. The drug-treated membrane samples thus obtained were suspended in a solution containing [^3H] hemicholinium-3, and incubated overnight at 4° C. […] After thorough drying, a scintillator was added and the radioactivity of the membrane samples was measured on a liquid scintillation counter. […] For the analysis of binding mode, Scatchard-plot was used and the maximum binding Bmax and dissociation constant Kd were calculated.

Cc1oc2nc3c(c(NC(=O)CN4CCCC4=O)c2c1C)CCCC3 [Compound A, 2-(2-oxopyrrolidin-1-yl)-N-(2,3-dimethyl-5,6,7,8-tetrahydrofuro[2,3-b)quinolin-4-yl)acetamide]
action on dissociation constant Kd of hemicholinium-3 binding: not on dissociation constant Kd

Source: patent publication US20040235884A1, “Preventives/remedies for cholinergic neuropathy” (priority 2001, published 2004)
